No constants are given. Whether binding was seen depends on the method and setting. Binding seen in cells or lysates may run through a third protein. Some binding calls cover weakened binding; strength is not graded here.
Biological target: T1, human Nup93 from HeLa lysate (human (endogenous in HeLa)) (UniProt Q8N1F7)
T1 sequence: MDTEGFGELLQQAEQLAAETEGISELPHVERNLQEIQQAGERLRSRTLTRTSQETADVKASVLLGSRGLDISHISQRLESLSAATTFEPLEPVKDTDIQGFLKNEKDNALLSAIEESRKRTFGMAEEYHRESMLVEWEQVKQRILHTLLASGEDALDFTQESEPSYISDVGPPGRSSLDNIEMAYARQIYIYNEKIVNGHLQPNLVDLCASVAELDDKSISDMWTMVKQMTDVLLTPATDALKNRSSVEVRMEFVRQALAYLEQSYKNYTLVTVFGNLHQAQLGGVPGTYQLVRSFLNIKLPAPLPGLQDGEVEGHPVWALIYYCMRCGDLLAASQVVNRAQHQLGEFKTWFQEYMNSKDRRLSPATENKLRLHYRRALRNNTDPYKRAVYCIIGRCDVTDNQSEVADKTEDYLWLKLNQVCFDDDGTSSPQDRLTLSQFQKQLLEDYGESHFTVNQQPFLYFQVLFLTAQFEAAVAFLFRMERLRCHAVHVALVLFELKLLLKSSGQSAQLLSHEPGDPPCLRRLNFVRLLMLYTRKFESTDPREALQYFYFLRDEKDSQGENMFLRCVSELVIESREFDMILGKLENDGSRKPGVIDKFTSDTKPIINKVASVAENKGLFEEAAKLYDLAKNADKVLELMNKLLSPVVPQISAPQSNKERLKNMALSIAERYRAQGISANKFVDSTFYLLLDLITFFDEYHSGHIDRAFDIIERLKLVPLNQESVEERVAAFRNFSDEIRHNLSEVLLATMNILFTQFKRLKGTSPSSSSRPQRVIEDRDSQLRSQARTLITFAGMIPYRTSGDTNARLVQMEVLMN
Experiment: pull-down

Chains of the proteins cited; added tags and fusions are not shown.
UniProt Q92621: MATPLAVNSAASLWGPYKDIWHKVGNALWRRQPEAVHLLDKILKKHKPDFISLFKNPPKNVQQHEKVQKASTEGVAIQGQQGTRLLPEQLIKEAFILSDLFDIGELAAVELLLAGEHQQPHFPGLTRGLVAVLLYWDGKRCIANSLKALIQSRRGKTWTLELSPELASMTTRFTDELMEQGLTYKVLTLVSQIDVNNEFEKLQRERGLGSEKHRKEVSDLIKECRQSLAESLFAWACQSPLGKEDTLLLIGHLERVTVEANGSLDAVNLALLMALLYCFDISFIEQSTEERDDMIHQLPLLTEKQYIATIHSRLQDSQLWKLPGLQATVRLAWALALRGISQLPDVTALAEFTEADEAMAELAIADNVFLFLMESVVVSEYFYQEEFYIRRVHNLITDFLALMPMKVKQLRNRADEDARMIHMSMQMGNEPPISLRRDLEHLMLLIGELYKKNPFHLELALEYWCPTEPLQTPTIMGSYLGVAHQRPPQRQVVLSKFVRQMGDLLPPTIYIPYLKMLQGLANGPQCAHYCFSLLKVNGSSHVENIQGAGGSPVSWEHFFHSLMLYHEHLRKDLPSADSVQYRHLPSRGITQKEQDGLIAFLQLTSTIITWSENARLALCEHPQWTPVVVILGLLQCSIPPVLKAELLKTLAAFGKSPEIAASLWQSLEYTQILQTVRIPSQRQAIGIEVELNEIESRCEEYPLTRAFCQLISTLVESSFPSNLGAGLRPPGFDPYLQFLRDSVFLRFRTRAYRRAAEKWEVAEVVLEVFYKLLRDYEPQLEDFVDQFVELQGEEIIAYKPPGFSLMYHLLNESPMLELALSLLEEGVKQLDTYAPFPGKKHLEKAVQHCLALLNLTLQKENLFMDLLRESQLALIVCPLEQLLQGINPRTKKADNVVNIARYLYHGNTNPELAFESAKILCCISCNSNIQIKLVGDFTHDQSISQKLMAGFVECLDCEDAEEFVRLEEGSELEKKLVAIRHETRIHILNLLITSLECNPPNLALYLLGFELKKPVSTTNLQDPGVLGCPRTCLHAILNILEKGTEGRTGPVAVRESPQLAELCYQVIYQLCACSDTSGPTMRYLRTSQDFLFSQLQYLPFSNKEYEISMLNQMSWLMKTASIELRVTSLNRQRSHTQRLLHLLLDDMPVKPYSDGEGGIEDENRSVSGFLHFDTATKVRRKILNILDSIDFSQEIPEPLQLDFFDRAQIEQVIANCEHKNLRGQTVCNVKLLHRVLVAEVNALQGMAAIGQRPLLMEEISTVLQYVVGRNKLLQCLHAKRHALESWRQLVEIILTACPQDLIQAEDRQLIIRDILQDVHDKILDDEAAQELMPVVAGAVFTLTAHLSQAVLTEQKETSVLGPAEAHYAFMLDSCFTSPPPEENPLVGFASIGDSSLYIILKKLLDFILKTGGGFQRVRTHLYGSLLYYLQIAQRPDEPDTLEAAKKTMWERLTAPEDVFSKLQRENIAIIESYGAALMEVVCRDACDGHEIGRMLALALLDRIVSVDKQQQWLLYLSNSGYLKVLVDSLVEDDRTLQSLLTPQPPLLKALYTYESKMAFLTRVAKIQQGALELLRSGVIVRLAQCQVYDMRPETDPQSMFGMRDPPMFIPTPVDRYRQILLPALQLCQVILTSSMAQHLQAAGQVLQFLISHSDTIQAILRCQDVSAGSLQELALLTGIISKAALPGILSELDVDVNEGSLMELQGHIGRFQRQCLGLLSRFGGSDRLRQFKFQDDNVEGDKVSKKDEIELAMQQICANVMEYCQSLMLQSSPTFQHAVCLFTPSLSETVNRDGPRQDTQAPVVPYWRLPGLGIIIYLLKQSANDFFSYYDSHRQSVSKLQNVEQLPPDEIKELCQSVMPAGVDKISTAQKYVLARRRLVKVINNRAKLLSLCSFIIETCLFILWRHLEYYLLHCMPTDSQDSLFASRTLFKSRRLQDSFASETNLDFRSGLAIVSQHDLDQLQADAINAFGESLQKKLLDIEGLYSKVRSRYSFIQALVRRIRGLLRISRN

binding: binds
Substance: human Nup205 from HeLa lysate (from UniProt Q92621 1-2012)

From article doi:10.1101/2023.09.12.557426
